The source of these data is PubChem BioAssay AID493014 (National Center for Advancing Translational Sciences (NCATS), 2011).

As usually defined, the AC50 is the midpoint of the concentration-response curve, whichever way the signal moves.

The list shows a part of the results. The main result of the screen is listed elsewhere. These columns were measured beside it and carry no call. The list favours compounds with an active or inconclusive main result. Words in brackets tell the shape of the fitted curve; partial curves, single points and poor fits give uncertain potencies.

The assay can be described thus: qHTS Assay to Find Inhibitors of Chronic Active B-Cell Receptor Signaling. As to conditions: ABC-DLBCL IkBa-CBG/CBR reporter, luminescence ratio (green luciferase fused to IkBa over red control in TMD8 lymphoma cells), 4 h; measured here: CBR red luminescence, cell number. From the text: NIH Molecular Libraries Probe Production Network [MLPCN] NIH Chemical Genomics Center [NCGC] MLPCN Grant: 1 R03 DA031086-01A1 PI Name: Dr. R. Eric Davis NCGC Assay Overview: Diffuse large B-cell lymphoma (DLBCL) is the most common category of non-Hodgkin lymphoma, with ~20,000 new cases per year in the United States. DLBCL should be regarded as a collection of different neoplasms. Microarray gene expression analysis has defined two principal types of DLBCL, named for their similarity to normal B cell stages or activation states: a germinal center B-cell (GCB) type, and an activated B-cell (ABC) type. In ABC-DLBCL, a constitutive high-level activity of the NF-kappaB family of transcription factors has been observed (1) and NF-kappaB target genes are more highly expressed in ABC primary tumors than in GCB tumors. Functional studies have shown a constitutive high-level activity of the IkappaB (inhibitor of kappa-B) kinase (IKK) complex. […] Further analysis of DLBCL primary tumors for NF-kappaB target gene expression imply that although CARD11 is required for constitutive IKK activity in all ABC-DLBCL lines, mutations in CARD11 may be the root cause of IKK activation only in lines or tumors with such mutations. In other words, CARD11 mutations may explain NF-kappaB activation in only 10% of ABC-DLBCL cases. […] This process has been termed 'chronic active BCR signaling' (CABS). The goal of this screen is to find small-molecule inhibitors of the CABS pathway found in ABC-DLBCL lines using a cell-based assay that measures IkappaBalpa stability, which has already been extensively validated in the OCI-Ly3 line (PubChem AID:445; REF: 4). […] The assay uses green (CBG68) and red (CBR) emitting beetle luciferases [Chroma-GloTM developed by Promega Corp.] where the green luciferase is fused to IkappaBalpha and the red luciferase is present in its native state. Both luciferase genes are stably present in the TMD8 human ABC DLBCL cell line, but their expression is under the control of tetracycline-inducible promoters. Following the addition of doxycycline to induce expression of the luciferases, the green luminescence in control cultures rises only slowly because the CBG fusion partner IkappaBalpha is targeted by IKK activity for rapid degradation. In contrast, green luminescence rises rapidly in the presence of proteasome inhibitors or IKK inhibitors. The rise in red luminescence of CBR is not affected by proteasome or IKK inhibitors, and serves as normalization for cell number and nonspecific effects. Compounds were screened as a concentration-titration series that ranged from 46 uM to 3 nM.
NCGC Assay Protocol Summary: Cells were seeded in 1536-well plates at 5000 cells/4uL in IMDM medium containing 0.5% FBS, w/o phenol red, 1% penicillin/streptomycin. Then, 23 nL of compounds or DMSO were delivered to each well using a pin tool. One uL 20ng/ml doxycycline was then dispensed into white solid 1536-well plates and the plates were incubated at 37C/5% C02 in a cell incubator for 4 hrs. Then 4 uL luminescent substrate mix (in-house prepared: 150 mM Tris-Cl, pH 7.6, 3 mM MgCl2, 1% Triton X-100, 5 mM DTT, 0.2 mM CoA, 0.15 mM ATP, 5 mM D-luciferin, final concentrations) was added to each well. The plate was incubated at r.t. for 10-15 min. The plates were measured on a ViewLux plate reader for green luminescence (540/20 nm filter) and red luminescence (618/8 nm filter). The green and red luminescent signals were corrected for red and green luminescence filter overlap using previously determined filter calibration constants (determined using the procedure outlined in the Promega Technical Manual; REF 4). The %Activity was determined from the ratio of corrected green/red luminescent values. MG132 were used as control. […] Red luminescent %Activity was normalized to the difference between red luminesence in basal cells (0%Activity) and zero luminescence (-100% Activity). […]
A general note: qHTS replaces the single test concentration by a dilution series.
On to `O=C(CCNC(=O)N1C[C@H]2C[C@@H](C1)c1cccc(=O)n1C2)Nc1cccc(Cl)c1`, for which the AC50 is 14.1 µM [rising, partial curve, poor fit].
`COc1ccccc1Cn1c(SCC(=O)C(C)(C)C)nc2cc(C(=O)N3CCC4(CC3)OCCO4)ccc2c1=O`: the concentration at half-maximal activity (AC50) is 3.55 µM [rising, partial curve, poor fit].
Regarding `O=C(Nc1nccs1)c1ccc(S(=O)(=O)NCC2CCCCC2)cc1`, the AC50 was 11.2 µM [falling, partial curve, poor fit].
As for `CC(C)CNC(=O)c1c(N)n(Cc2ccco2)c2nc3ccccc3nc12`, the concentration at half-maximal activity (AC50) is 9.2 µM [falling, partial curve, poor fit].
For `O=C(c1cc2c(s1)CCCC2)N1CCC2(CC1)OCCO2`, the AC50 is 4.11 µM [rising, full curve, poor fit].
For the compound `COc1ccc(NC(=O)CCCn2c(=O)oc3ccccc32)cc1Cl`, the half-maximal activity concentration (AC50) is 29.1 µM [rising, single point].
As to `O=C1c2ccccc2C(=O)N1CCCn1c(=O)oc2ccccc21`, the half-maximal activity concentration (AC50) is 29.1 µM [falling, single point].
As to `Cc1cc(OC(=O)c2ccco2)c2c3c(c(=O)oc2c1)CCC3`, the concentration at half-maximal activity (AC50) is 0.1 µM [rising, full curve, poor fit].
As to `Cn1c(O)c(/C=C2/C=CC=N2)c(=O)[nH]c1=O`, the concentration at half-maximal activity (AC50) is 11.2 µM [falling, single point].
With `CCOC(=O)[C@@]1(C#N)C(c2ccc(Cl)c(Cl)c2)[C@H](C(N)=O)N2C=C(C(C)=O)C=C[C@H]21` (stereo not given in full) the figure was 5.62 µM [falling, full curve, poor fit].
With `CN(C)CCn1cnc2ccccc21`, the AC50 is 12.6 µM [rising, partial curve, poor fit].
For `CCCOc1ccc(C(=O)NC(=S)N2C[C@H]3C[C@H](C2)c2cccc(=O)n2C3)cc1`, the concentration at half-maximal activity (AC50) is 11.2 µM [rising, partial curve, poor fit].
Turning to `CN=C1S/C(=C\c2ccc(SC)cc2)C(=O)N1C`, the AC50 was 3.16 µM [rising, full curve].
For the compound `O=c1oc2ccccc2c(O)c1C(c1ccc([N+](=O)[O-])cc1)c1c(O)c2ccccc2oc1=O`, the half-maximal activity concentration (AC50) is 3.98 µM [falling, full curve].
Next, `O=C1NC(=O)N(c2ccc(Br)cc2)C(=O)/C1=C/c1ccsc1`: 0.794 µM [falling, full curve, poor fit]; `CCOc1ccc(N2C(=O)/C(=C\c3cccs3)C(=O)NC2=S)cc1`: 5.01 µM [rising, single point].
With `C#C[C@]1(O)CCC2C3CCC4=C/C(=N/OCC(=O)NC(C)C(=O)NC(CCSC)C(=O)O)CC[C@]4(C)C3CC[C@@]21C` (stereo not given in full) the figure was 0.891 µM [rising, full curve, poor fit].
With `CC1CCCC(C)N1/N=C/c1c[nH]c2ccc(Br)cc12` (stereo not given) the figure was 23.1 µM [falling, single point]; with `CCCCCn1c(=O)c(C(=O)Nc2nc3ccccc3[nH]2)c(O)c2ccccc21`, 15.8 µM [falling, partial curve]; with `CCn1c(O)c(/C=N/N2CCOCC2)c(=O)n(CC)c1=S`, 20.6 µM [falling, single point].
Regarding `COC(=O)C1=C(c2ccc(F)cc2F)C[C@@H]2CC[C@H]1N2C(=O)NC(C)C`, the AC50 was 10.3 µM [rising, partial curve].
With `CON(C)C(=O)Nc1ccc(Cl)cc1`, the AC50 was 3.66 µM [rising, full curve].
`COC(=O)c1cccc(NC(=S)NCCC2=CCCCC2)c1`: the AC50 is 12.6 µM [falling, partial curve].
Consider `CCC1C(c2ccccc2)NC(c2ccccc2)CC1(O)c1ccc(F)cc1` (stereo not given), for which the AC50 is 17.8 µM [falling, single point].
As for `COC(=O)c1c(C)[nH]c(C(=O)C(Cc2ccccc2)N(C)C)c1C` (stereo not given), the concentration at half-maximal activity (AC50) was 6.51 µM [rising, single point].
Next, `CC12CN3CC(C)(CN(C1)C3c1cccs1)C2=O` (stereo not given): 14.1 µM [rising, partial curve, poor fit].
Consider `Fc1ccc(C[n+]2c(-c3ccccc3)cc(-c3ccccc3)cc2-c2ccccc2)cc1`, for which the half-maximal activity concentration (AC50) is 23.1 µM [falling, partial curve].
`COc1ccccc1C(O)P(=O)(OCC(C)C)c1ccc(N(C)C)cc1` (stereo not given): the half-maximal activity concentration (AC50) is 14.1 µM [falling, single point].
For the compound `N/C(=N\N=C/c1ccc(-c2ccc(O)c(C(=O)O)c2)o1)N[N+](=O)[O-]`, the AC50 is 12.6 µM [falling, single point].
On to `Cc1cccc(OP(N)(=O)Oc2cccc(C)c2)c1`, for which the AC50 is 20 µM [rising, single point].
As for `COc1ccc(CCC(C)NCCc2ccccc2)cc1` (stereo not given), the AC50 was 14.6 µM [rising, partial curve, poor fit].
With `Cc1c(C(c2ccc(F)cc2)c2c(O)c3ccccc3oc2=O)c(=O)n(-c2ccccc2)n1C` (stereo not given) the figure was 8.2 µM [falling, partial curve]; with `CCOC(=O)c1cccc(-[n+]2c(-c3ccccc3)cc(-c3ccccc3)cc2-c2ccccc2)c1`, 9.2 µM [falling, partial curve, poor fit].
On to `COC(=O)C1=C(c2ccc(Cl)c(C(F)(F)F)c2)C[C@@H]2CC[C@H]1N2C(=O)NC1CCCCC1`, for which the AC50 was 18.4 µM [falling, partial curve].
As for `COc1cc(OC)cc(-n2nc(C(=O)N3CCC4(CC3)OCCO4)c3ccccc3c2=O)c1`, the half-maximal activity concentration (AC50) was 10.3 µM [rising, partial curve, poor fit].
On to `Cc1ccc(N2C(=O)NC(=O)C3(Cc4ccccc4N4CCN(c5ccccc5)CC43)C2=O)cc1` (stereo not given), for which the concentration at half-maximal activity (AC50) is 2.82 µM [falling, full curve].
For `CCCCCCn1c(N2CCC(C)CC2)nc2c1c(=O)[nH]c(=O)n2C`, the concentration at half-maximal activity (AC50) is 20 µM [rising, single point].
Next, `c1ccc2c(c1)-c1cccc3cccc-2c13`: 25.9 µM [rising, partial curve, poor fit].
On to `O=c1c2ccccc2nc(/C=C/c2ccc(O)cc2)n1-c1ccc(O)cc1`, for which the AC50 is 8.91 µM [falling, partial curve, poor fit].
Turning to `O=C(OC1CCN(CCCl)CC1)C(c1ccccc1)c1ccccc1`, the AC50 was 29.1 µM [falling, single point].
